# In publication PMC13581290, “A systematic interactome of Saccharomyces cerevisiae SET1C expands its functional landscape and identifies candidate regulatory connections” (eLife, 2026):
# The chains behind the UniProt entries cited, without tags or fusion partners. Where a name states a change or a piece, a line headed by the entry shows the natural chain unless it says otherwise.
# UniProt P22082: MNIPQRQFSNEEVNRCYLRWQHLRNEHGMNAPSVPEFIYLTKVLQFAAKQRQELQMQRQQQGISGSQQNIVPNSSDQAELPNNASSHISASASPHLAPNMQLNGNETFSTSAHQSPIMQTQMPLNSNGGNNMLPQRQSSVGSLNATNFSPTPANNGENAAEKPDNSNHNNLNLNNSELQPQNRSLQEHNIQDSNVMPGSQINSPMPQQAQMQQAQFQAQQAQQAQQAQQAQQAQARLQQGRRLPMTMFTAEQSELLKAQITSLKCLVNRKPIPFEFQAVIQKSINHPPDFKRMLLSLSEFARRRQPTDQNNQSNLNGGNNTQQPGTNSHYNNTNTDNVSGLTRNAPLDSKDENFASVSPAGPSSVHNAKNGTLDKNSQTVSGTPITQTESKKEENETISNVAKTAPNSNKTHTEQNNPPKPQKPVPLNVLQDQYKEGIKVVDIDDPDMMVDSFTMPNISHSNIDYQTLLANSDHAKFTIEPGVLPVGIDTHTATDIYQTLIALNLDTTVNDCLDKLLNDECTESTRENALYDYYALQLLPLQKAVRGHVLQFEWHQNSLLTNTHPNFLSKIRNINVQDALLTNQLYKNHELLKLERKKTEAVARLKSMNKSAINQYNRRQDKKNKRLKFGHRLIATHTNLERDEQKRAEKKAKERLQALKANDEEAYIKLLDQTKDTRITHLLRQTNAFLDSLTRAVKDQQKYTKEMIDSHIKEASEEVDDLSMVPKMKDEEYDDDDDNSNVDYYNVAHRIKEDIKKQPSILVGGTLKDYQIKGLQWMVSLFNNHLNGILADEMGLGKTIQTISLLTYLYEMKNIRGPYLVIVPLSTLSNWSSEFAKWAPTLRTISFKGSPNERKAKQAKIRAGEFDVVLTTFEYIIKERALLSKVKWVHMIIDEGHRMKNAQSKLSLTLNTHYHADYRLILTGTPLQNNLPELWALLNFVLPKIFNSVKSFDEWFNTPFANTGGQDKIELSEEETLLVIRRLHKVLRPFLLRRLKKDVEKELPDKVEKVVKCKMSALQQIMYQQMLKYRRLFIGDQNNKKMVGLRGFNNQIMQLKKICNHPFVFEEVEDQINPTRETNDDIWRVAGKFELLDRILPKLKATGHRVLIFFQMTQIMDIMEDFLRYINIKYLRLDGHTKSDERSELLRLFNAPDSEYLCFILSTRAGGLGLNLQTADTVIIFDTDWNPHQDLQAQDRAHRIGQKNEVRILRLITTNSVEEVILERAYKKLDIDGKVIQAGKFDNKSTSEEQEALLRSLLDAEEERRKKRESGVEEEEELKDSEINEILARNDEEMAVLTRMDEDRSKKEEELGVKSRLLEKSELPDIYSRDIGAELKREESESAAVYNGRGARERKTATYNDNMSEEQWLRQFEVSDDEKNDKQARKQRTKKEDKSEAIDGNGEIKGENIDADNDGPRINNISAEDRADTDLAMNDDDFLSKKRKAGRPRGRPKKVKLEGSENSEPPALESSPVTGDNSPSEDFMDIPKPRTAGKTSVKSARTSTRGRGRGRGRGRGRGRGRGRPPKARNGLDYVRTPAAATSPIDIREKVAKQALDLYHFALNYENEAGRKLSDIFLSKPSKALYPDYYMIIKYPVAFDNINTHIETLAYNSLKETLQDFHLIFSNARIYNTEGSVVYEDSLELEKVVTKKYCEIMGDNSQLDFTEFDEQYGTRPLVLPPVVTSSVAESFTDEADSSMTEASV
# UniProt P04050: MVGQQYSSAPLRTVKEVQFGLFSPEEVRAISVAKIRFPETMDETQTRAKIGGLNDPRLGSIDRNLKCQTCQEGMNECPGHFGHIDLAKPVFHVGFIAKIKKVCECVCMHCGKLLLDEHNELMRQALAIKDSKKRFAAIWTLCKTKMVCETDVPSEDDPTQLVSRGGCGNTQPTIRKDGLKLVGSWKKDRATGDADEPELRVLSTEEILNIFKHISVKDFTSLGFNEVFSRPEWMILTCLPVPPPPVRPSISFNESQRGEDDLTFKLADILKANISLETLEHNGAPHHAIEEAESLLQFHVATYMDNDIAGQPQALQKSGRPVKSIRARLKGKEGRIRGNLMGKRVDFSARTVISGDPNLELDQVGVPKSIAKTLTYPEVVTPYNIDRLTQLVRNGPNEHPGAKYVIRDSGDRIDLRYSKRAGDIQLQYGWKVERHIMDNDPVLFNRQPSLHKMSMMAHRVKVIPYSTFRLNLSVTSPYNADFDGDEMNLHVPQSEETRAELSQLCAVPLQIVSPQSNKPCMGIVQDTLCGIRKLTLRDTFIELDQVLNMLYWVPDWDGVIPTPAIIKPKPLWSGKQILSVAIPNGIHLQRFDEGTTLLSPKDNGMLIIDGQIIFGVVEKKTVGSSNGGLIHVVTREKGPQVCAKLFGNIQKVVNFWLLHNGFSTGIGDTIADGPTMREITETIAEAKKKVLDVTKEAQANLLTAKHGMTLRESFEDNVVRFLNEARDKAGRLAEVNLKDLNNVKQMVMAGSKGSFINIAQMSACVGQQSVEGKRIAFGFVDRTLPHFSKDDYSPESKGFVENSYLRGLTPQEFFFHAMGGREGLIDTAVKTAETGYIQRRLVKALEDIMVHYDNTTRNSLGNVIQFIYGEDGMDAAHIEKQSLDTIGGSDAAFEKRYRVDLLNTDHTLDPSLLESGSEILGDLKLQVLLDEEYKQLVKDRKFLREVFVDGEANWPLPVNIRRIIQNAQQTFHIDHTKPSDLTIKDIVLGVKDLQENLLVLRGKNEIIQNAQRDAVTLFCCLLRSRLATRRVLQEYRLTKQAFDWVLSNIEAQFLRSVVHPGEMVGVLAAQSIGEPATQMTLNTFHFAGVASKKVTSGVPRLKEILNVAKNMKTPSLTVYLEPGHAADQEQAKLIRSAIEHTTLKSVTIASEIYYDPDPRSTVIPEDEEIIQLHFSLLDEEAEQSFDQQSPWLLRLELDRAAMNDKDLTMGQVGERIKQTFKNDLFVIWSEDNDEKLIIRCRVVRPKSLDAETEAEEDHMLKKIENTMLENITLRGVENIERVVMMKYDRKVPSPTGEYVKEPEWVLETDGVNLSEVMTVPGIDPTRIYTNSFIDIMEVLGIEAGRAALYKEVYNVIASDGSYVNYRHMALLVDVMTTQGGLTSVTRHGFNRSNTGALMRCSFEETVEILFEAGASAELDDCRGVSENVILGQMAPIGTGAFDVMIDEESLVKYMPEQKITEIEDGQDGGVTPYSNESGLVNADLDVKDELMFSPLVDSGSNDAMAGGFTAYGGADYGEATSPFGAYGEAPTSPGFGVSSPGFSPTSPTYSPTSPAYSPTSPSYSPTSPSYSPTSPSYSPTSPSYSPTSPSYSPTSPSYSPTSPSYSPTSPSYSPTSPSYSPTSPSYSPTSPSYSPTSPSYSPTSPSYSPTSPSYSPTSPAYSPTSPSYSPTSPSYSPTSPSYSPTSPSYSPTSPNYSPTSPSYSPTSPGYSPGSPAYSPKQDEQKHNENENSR
# Results are given in words; binding and its absence hold for the method and conditions named. A result given as binding can be weak or reduced; the word gives no strength. For some assays here: Binding seen in cells or lysates may run through a third protein.
# Tests used:
# [1] = target: T1, Set1 1–754, two-hybrid bait (S. cerevisiae) (UniProt P38827); experiment: two-hybrid; 10 screens (Hybrigenics) of a genomic S. cerevisiae library in pP6 by mating; baits fused to the Gal4 DNA-binding domain or LexA; selection on medium lacking tryptophan, leucine and histidine, with 3AT if necessary
# T1 sequence: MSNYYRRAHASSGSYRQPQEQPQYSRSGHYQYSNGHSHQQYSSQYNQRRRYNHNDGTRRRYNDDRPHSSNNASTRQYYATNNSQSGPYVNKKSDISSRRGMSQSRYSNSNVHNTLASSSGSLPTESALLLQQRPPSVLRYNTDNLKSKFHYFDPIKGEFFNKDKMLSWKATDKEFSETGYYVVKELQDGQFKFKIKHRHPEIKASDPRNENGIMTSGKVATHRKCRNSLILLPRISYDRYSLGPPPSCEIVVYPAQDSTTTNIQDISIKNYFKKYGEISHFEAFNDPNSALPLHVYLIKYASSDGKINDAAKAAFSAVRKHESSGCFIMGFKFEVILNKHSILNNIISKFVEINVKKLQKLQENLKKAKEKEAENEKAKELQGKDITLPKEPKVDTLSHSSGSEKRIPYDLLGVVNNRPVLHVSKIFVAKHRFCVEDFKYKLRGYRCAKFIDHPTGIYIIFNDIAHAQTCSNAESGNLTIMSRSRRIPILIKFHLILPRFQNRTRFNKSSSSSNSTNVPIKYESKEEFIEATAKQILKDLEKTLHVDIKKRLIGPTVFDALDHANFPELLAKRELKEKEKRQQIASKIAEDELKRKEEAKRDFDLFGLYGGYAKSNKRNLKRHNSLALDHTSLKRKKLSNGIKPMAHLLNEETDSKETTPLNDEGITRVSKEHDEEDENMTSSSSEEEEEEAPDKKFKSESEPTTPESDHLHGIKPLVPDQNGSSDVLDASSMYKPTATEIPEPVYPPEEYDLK
# [2] = target: Snf2∆RG-Myc (S. cerevisiae) (UniProt P22082); experiment: co-IP; yeast lysate in TMG 50 (10 mM Tris-HCl pH 8.0, 50 mM NaCl, 10% glycerol); Myc-tagged Snf2 precipitated overnight with 9E10 antibody and protein-G dynabeads; blot with anti-Set1 antibodies
binding [1],binding [2],Substance
binds,,"CTD of Rpb1, two-hybrid prey (from UniProt P04050) (domain or fragment)"
,binds,Set1 (endogenous) (from UniProt P38827 1-1080)
